Values quoted from earlier work, collected in patent US8410056B2, “Pro-oxidant anti-cancer compounds” (priority 2006, dated 2013).
At least one read-out could not be matched to a standard name with certainty.

Test system: PC-3
Conditions: Table 2, Galli et al, 2004; cited from earlier work

For `Cc1c(C)c2c(c(C)c1O)CCC(C)(CCC(=O)O)O2` (centres unmarked) [Compound 51], the IC50 is given as > 50 µM.
In the case of `Cc1c(O)cc2c(c1C)OC(C)(CCC(=O)O)CC2` (centres unmarked) [Compound 52, γ-Carboxyethyl hydroxychroman], the IC50 is listed as < 10 µM.
